This list was built around the results that the source calls inconclusive (neither active nor inactive); the mix of calls is not that of the screen. Active and inactive are the calls of the source. Calls follow the shape of the dose curve; as a rule, active = well fitted curve in either direction with a large enough effect (not every such curve was filed as active); inconclusive = small, poorly fitted or top-dose-only effect, or another doubt; inactive = flat fitted curve, though single readings scatter.
Experiment: Stat Signaling Pathway (AID 446);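 also: ME-180 cervical cancer cells given 40 pM IL-6 alongside compound; SIE-controlled beta-lactamase reporter measured as 460/530 nm FRET emission ratio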
Settings: ME-180 (cervical carcinoma) SIE beta-lactamase reporter, IL-6 stimulated, 5 h; at 7.69 µM (top of the series) unless noted
In short: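 IL-6/STAT signaling read in ME-180 cells via an SIE beta-lactamase reporter. Stimulus was 40 pM IL-6 (its AC50) for 5 hrs, so both activation and inhibition register.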
% is scaled to controls: 0 for no effect and ±100 for the full control effect.

Row | SMILES | activity, negative = inhibition
1 | Cc1nn(CC(=O)NCCN2CCOCC2)c(=O)c2ccccc12 | inactive: 8.76% [at 17.2 µM]
2 | C[C@@H]1[C@H](C)CC[C@@]2(C(=O)O[C@H]3O[C@@H](CO[C@H]4O[C@@H](CO)[C@@H](O[C@H]5O[C@@H](C)[C@@H](O)[C@@H](O)[C@@H]5O)[C@@H](O)[C@@H]4O)[C@@H](O)[C@@H](O)[C@@H]3O)CC[C@]3(C)C(=CC[C@H]4[C@@]5(C)C[C@@H](O)[C@@H](O)[C@](C)(CO)[C@@H]5CC[C@@]43C)[C@@H]12 | inactive: -6.15% [at 17.2 µM]
3 | Cc1cc(=O)oc(C)c1C(=O)NCC(C)NC(=O)c1c(C)cc(=O)oc1C (stereo not given) | inconclusive: 0.0859% [inhibitor] [at 17.2 µM]
4 | CC/C(C)=C1\SC(N2CCN(C(C)=O)CC2)=NC1=O | inactive: 8.03% [at 17.2 µM]
5 | CC(C)(C)c1ccc(NS(=O)(=O)c2ccc(N)cc2)cc1 | inconclusive: 32.4% [activator]
6 | CCCCNC(=O)N1CCOCCOCCN(C(=O)NCCCC)CCOCC1 | inactive: 5.68% [at 17.2 µM]
7 | Cc1ccc(CNC(=O)c2cc3c(=O)n4ccccc4nc3n(CC3CCCO3)c2=N)cc1 (stereo not given) | inconclusive: 41.8% [activator] [at 17.2 µM]
8 | COc1cccc(NC(=O)CSC2=C(C#N)C(c3ccco3)C3=C(CCCC3=O)N2)c1 (stereo not given) | inactive: -7.07% [at 17.2 µM]
9 | FC(F)(F)c1cc(NC(=S)N2c3ccccc3-n3cccc3[C@H]2c2cccnc2)cc(C(F)(F)F)c1 | inactive: -5.05%
10 | COc1ccc(CNC(=O)[C@H](C)NC(=O)C2CCN(S(=O)(=O)c3ccc(C)cc3)CC2)cc1 | inactive: 2.4% [at 17.2 µM]
11 | O=C1Nc2ccccc2C1=Nc1ccc(S(=O)(=O)Nc2nccs2)cc1 | inactive: -9.11%
12 | CCCCc1[nH]c(=O)c(C#N)c2c1CSC(C)(C)C2 | inactive: 3.1% [at 17.2 µM]
13 | Cc1c(C(Nc2ccccn2)c2ccccc2)c(=O)n(-c2ccccc2)n1C (stereo not given) | inactive: 8.77% [at 17.2 µM]
14 | O=C(O)c1ccc(C(=O)O)c(C(=O)O)c1.[NH-][C@@H]1CCCC[C@@H]1[NH-].[Pt] | inactive: -6.09%
15 | COCc1[nH]nc2c1C(c1ccccc1OC)C(C#N)=C(N)O2 (stereo not given) | inactive: -17.1% [at 17.2 µM]
16 | O=C(O)CN(CC(=O)O)c1ccccc1 | inactive: 13.6%
17 | O=S(=O)(c1ccc2ccccc2c1)N(CC(O)CN1CCOCC1)c1ccccc1 (stereo not given) | inactive: -7.59% [at 17.2 µM]
18 | Cc1ccc(-c2nn3c(-c4cccc(Cl)c4)nnc3s2)cc1 | inconclusive: 32.3% [activator] [at 17.2 µM]
19 | O=C(O)CSc1ccn(Cc2ccccc2)c1 | inconclusive: 32.1% [activator]
20 | c1ccc(NCCSc2nc3ccccc3s2)cc1 | inconclusive: 25.4% [inhibitor]

Row | SMILES | activity, negative = inhibition
21 | S=c1[nH]nc(-c2ccco2)n1C1CCCCC1 | inactive: 1.34% [at 17.2 µM]
22 | CCN(CC)C(=O)CSC1=C(C#N)C(c2ccco2)C(C(=O)OCCOC)=C(C)N1 (stereo not given) | inactive: 2.75% [at 17.2 µM]
23 | C[N+](C)(C)c1ncnc2c1ncn2[C@@H]1CCCCO1 | inconclusive: -54.2% [inhibitor]
24 | O=C(O)C[C@H](Cc1ccccc1Cl)C(=O)O | inactive: 13.9%
25 | COc1cc(-n2c3nc4ccccc4nc3c3c(=O)n(Cc4ccco4)cnc32)cc(OC)c1OC | inactive: 3.4% [at 17.2 µM]
26 | CC(=O)c1ccc(O)c(CO)c1 | inconclusive: -55.6% [inhibitor] [at 17.2 µM]
27 | C=C(Br)CN1CCN(CC(=C)Br)CC1 | inconclusive: 30.9% [activator] [at 17.2 µM]
28 | NC(N)=NC(N)=Nc1ccc(S(N)(=O)=O)cc1 | inconclusive: 7.29% [inhibitor]
29 | CC(C)Cc1[nH]c(=O)c(C#N)c2c1CCCC2 | inactive: 8.54% [at 17.2 µM]
30 | Nc1nnc(CSCc2ccc(F)cc2)s1 | inactive: -2.21% [at 17.2 µM]
31 | CCOC(=O)CCc1c(C)c(C#N)c2[nH]c3ccccc3n2c1=O | inconclusive: -48.1% [inhibitor] [at 17.2 µM]
32 | O=S(=O)(C[C@H](O)C(Cl)(Cl)Cl)NNc1ccccc1 | inactive: 5.12%
33 | C[C@@H](CS(=O)(=O)Cc1ccccc1)C(N)=O | inactive: 3.43%
34 | CC(=O)N1CCC2(CC1)CN(Cc1ccc(C#N)cc1)C2 | inconclusive: -32.5% [inhibitor]
35 | Cn1c(=O)n(C)c2cc(C(=O)c3ccccc3)ccc21 | inactive: -6.62% [at 17.2 µM]
36 | Cc1[nH]nc2cn[nH]c12 | inactive: 4.46% [at 17.2 µM]
37 | C[N+]1(CCC(=O)c2ccco2)CC2CCC(CC2)C1 (stereo not given) | inactive: 1.18%
38 | Cn1c(=O)c2[nH]c(CS(=O)(=O)Cc3nc4c([nH]3)c(=O)n(C)c(=O)n4C)nc2n(C)c1=O | inactive: -2.96%
39 | N#C[C@H](C(=O)O)C(c1c(Cl)cccc1Cl)[C@H](C#N)C(=O)O | inactive: 5.11%
40 | COc1cccc(/C(O)=C2\C(=O)C(=O)N(c3ccccn3)C2c2ccccc2OC)c1 (stereo not given) | inactive: 1.49% [at 17.2 µM]

Of the compounds above, these contain an aryl thioether with sulfur outside any ring.
Row | SMILES | activity, negative = inhibition
19 | O=C(O)CSc1ccn(Cc2ccccc2)c1 | inconclusive: 32.1% [activator]
20 | c1ccc(NCCSc2nc3ccccc3s2)cc1 | inconclusive: 25.4% [inhibitor]

From PubChem BioAssay (NCATS)
